In publication PMC5115829, “Digitor/dASCIZ Has Multiple Roles in Drosophila Development” (PLoS ONE, 2016):
These are yes or no findings as the source states them, for the method shown. Tags and fused reporters may be left off the sequences shown.

Target: T1, His-tagged JIL-1 kinase control fusion protein (amino-terminal fragment, first 260 amino acid residues) (UniProt Q9V3I5)
T1 sequence: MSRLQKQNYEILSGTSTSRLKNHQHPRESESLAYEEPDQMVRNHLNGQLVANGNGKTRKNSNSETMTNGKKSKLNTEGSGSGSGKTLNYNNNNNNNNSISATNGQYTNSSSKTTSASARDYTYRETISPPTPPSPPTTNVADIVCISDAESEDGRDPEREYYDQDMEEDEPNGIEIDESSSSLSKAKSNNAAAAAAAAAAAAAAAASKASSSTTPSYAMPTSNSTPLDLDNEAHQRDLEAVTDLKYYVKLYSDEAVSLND
Assay: pull-down; about 10 ug His-Skeletor or His-JIL-1 coupled to Ni-NTA beads, incubated with 10 ug GST-Digitor in 1X PBS pH 7.4, 4 hr, 4°C; 5 washes; immunoblot with anti-GST mAb 8C7; both purified

B1: Digitor-GST fusion protein without the four zinc-finger motifs (amino acid residues 144 to 376) (domain or fragment, UniProt Q9VZU1 144-376)
chain: LVHHESDKVPIPSLATWKRLNPQPIPVSADSLTAHSLKTGSDLHPSEEYINNLPSNLAGVTELYAEIPNPEANMPSTLELDTNLPAAEEHILCFLPIMDVSYALEMSSQKLDMETQTEEDDLNEIRNEVLAPLLRDIETQTPDTRGDIGTMTDDFPEEQEPVAVGSHFHAYSETEPMFDLQTSAHMYTQTCDDLFEELGLSHIQTQTHWPDGLYNTQHTQTCDEIMDELFPDN
binding: no binding (tested: 10 μg of GST-Digitor)
